PubChem BioAssay AID1259424 – University of Nebraska Medical Center, 2018

Test: 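Rank knockdowns across the genome by resemblance to the KSR1 depletion profile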 (primary screen)
System: human HCT116 colon cancer cells
Reagents: siRNA pool against human genes, 50 nM
Measured: 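Six signature mRNAs by branched-DNA multiplex assay, scaled to two housekeeping genes and non-targeting median, log2; matched to mean KSR1 knockdown profile by Pearson correlation and euclidean distance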
Scale: mean correlation with KSR1 profile and KSR1 correlation: higher = expression change more like KSR1 knockdown; mean distance from KSR1 profile: higher = expression change less like KSR1 knockdown
The deposit covers about 14,000 reagents; shown is a part drawn at random. 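Higher correlation or smaller distance means closer resemblance to KSR1 loss; control wells, including KSR1 knockdowns, recur on many plates.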 Not all columns of the deposit are shown. No sequences are given here. The record does not give: the time to read-out.

| Target gene | PubChem SID | mean correlation with KSR1 profile | mean distance from KSR1 profile | KSR1 correlation, replicate 1 | KSR1 correlation, replicate 2 |
| --- | --- | --- | --- | --- | --- |
| MIXL1 (Mix paired-like homeobox) | SID364003715 | -0.214 | 2.4 | 0.29 | -0.118 |
| APTX (aprataxin) | SID364004868 | -0.353 | 1.23 | -0.508 | -0.326 |
| STEAP3 (STEAP3 metalloreductase) | SID364000900 | -0.284 | 1.38 | -0.289 | -0.284 |
| RPL15 (ribosomal protein L15) | SID363994099 | 0.394 | 6.05 | 0.304 | 0.345 |
| GPRASP3 | SID364003386 | 0.308 | 1.62 | 0.00351 | 0.319 |
| TEX11 (testis expressed 11) | SID364003566 | -0.0285 | 5.42 | 0.268 | -0.254 |
| TMTC1 (transmembrane O-mannosyltransferase targeting cadherins 1) | SID364003699 | 0.642 | 2.91 | 0.368 | 0.671 |
| SLC28A2 | SID363995212 | -0.506 | 3.07 | -0.137 | -0.685 |
| PLXDC2 (plexin domain containing 2) | SID364004192 | 0.59 | 2.25 | 0.206 | 0.267 |
| HMGA2 (high mobility group AT-hook 2) | SID363994582 | -0.029 | 3.15 | 0.0731 | 0.0332 |
| ZNF500 (zinc finger protein 500) | SID364005261 | -0.183 | 1.48 | -0.135 | -0.473 |
| CEP19 (centrosomal protein 19) | SID364004261 | 0.431 | 1.81 | 0.407 | 0.449 |
| PTTG1IP (PTTG1 interacting protein) | SID363995328 | -0.108 | 1.85 | -0.314 | -0.167 |
| H4C3 (H4 clustered histone 3) | SID363994625 | -0.124 | 3.4 | -0.187 | -0.383 |
| PLAC1 (placenta associated 1) | SID364002180 | -0.361 | 1.77 | -0.246 | -0.481 |
| MRPL3 (mitochondrial ribosomal protein L3) | SID363997904 | 0.363 | 1.38 | 0.478 | 0.064 |
| NEIL1 (nei like DNA glycosylase 1) | SID364002910 | 0.156 | 2.96 | 0.162 | 0.0927 |
| PLXNA1 (plexin A1) | SID364003846 | 0.0259 | 1.37 | -0.418 | 0.255 |
| TERF2IP (TERF2 interacting protein) | SID364001299 | 0.523 | 1.8 | 0.417 | 0.574 |
| SLC25A39 | SID363999796 | -0.593 | 6.84 | -0.143 | -0.183 |
| MS4A7 (membrane spanning 4-domains A7) | SID364002088 | -0.846 | 2.75 | -0.898 | -0.649 |
| COL17A1 (collagen type XVII alpha 1 chain) | SID363991817 | -0.061 | 3.04 | 0.0735 | -0.0103 |
| CNN3 (calponin 3) | SID363993054 | 0.15 | 1.38 | 0.0542 | 0.367 |
| KIRREL2 (kirre like nephrin family adhesion molecule 2) | SID364003780 | 0.789 | 1.4 | 0.702 | 0.618 |
| OR5L2 (olfactory receptor family 5 subfamily L member 2) | SID364005490 | 0.281 | 4.78 | 0.443 | 0.269 |
| UVSSA (UV stimulated scaffold protein A) | SID364005144 | -0.919 | 2.71 | -0.941 | -0.69 |
| ARID4B (AT-rich interaction domain 4B) | SID364000072 | 0.0954 | 1.52 | -0.104 | 0.0842 |
| IRAK4 (interleukin 1 receptor associated kinase 4) | SID363999891 | -0.302 | 1.13 | -0.0299 | 0.0878 |
| SQSTM1 (sequestosome 1) | SID363994958 | -0.254 | 2 | -0.0712 | -0.451 |
| CCDC15 (coiled-coil domain containing 15) | SID364003205 | 0.126 | 2.01 | 0.0206 | 0.0387 |
| SHBG (sex hormone binding globulin) | SID363992337 | 0.573 | 1.93 | 0.397 | 0.655 |
| OR10H1 (olfactory receptor family 10 subfamily H member 1) | SID363998533 | 0.398 | 1.86 | 0.48 | 0.494 |
| PPY (pancreatic polypeptide) | SID363993881 | 0.25 | 2.07 | 0.42 | 0.426 |
| PKD2L2 | SID363998808 | 0.365 | 1.87 | 0.153 | 0.475 |
| FLACC1 (flagellum associated containing coiled-coil domains 1) | SID364004601 | 0.326 | 2.19 | 0.227 | 0.187 |
| PAX9 (paired box 9) | SID363997020 | 0.773 | 1.22 | 0.604 | 0.0734 |
| DMPK (DM1 protein kinase) | SID363995392 | 0.163 | 2.72 | 0.0889 | 0.181 |
| PUDP (pseudouridine 5'-phosphatase) | SID363998030 | -0.171 | 1.59 | -0.072 | -0.327 |
| RAMP3 (receptor activity modifying protein 3) | SID363996730 | -0.111 | 2.76 | -0.0897 | -0.0389 |
| NLN (neurolysin) | SID364001795 | 0.0311 | 2.76 | -0.149 | 0.0898 |
| DLST (dihydrolipoamide S-succinyltransferase) | SID363993146 | 0.104 | 3.29 | -0.0823 | 0.272 |
| CYP17A1 (cytochrome P450 family 17 subfamily A member 1) | SID363991439 | 0.00948 | 1.88 | -0.0622 | -0.00591 |
| HPSE (heparanase) | SID363997451 | -0.242 | 2.97 | 0.0314 | -0.391 |
| POLL (DNA polymerase lambda) | SID363998397 | 0.674 | 1.96 | 0.787 | 0.624 |
| EFHC2 (EF-hand domain containing 2) | SID364003296 | 0.0839 | 3.01 | -0.436 | 0.132 |
| SLC14A1 | SID363999685 | -0.315 | 1.31 | -0.103 | -0.442 |
| SOX30 (SRY-box transcription factor 30) | SID364004912 | -0.177 | 2.02 | -0.269 | -0.0638 |
| XKR8 (XK related 8) | SID364000741 | -0.269 | 2.82 | -0.208 | -0.375 |
| SEMA3E (semaphorin 3E) | SID364005579 | -0.654 | 1.27 | -0.203 | -0.461 |
| ZNF687 (zinc finger protein 687) | SID364001857 | 0.631 | 1.38 | 0.704 | 0.441 |

Reformatted: entries from further up.
{"Target gene":"CNN3 (calponin 3)","PubChem SID":"SID363993054","mean correlation with KSR1 profile":0.15,"mean distance from KSR1 profile":1.38,"KSR1 correlation, replicate 1":0.0542,"KSR1 correlation, replicate 2":0.367}
{"Target gene":"KIRREL2 (kirre like nephrin family adhesion molecule 2)","PubChem SID":"SID364003780","mean correlation with KSR1 profile":0.789,"mean distance from KSR1 profile":1.4,"KSR1 correlation, replicate 1":0.702,"KSR1 correlation, replicate 2":0.618}
{"Target gene":"OR5L2 (olfactory receptor family 5 subfamily L member 2)","PubChem SID":"SID364005490","mean correlation with KSR1 profile":0.281,"mean distance from KSR1 profile":4.78,"KSR1 correlation, replicate 1":0.443,"KSR1 correlation, replicate 2":0.269}
